Binding data for three molecules are collected here from PMC4784909, “The Structural Basis of Coenzyme A Recycling in a Bacterial Organelle” (PLoS Biology, 2016).

In assay [1] the target is sPduL, full length (PduL from the pdu locus of Salmonella enterica Typhimurium LT2) (Salmonella enterica Typhimurium LT2) (UniProt Q9XDN5). The assay can be described thus: SEC; post-nickel affinity protein on HiLoad 26/60 Superdex 200 preparative column, pooled fractions (1-20 mg/mL) on Superdex 200 10/300 GL analytical column; 20 mM Tris pH 7.4, 50 mM NaCl; both purified.

Assay [2] addresses rPduLΔEP (PduL from the grm3 locus of Rhodopseudomonas palustris BisB18, N-terminal putative encapsulation peptide removed) (Rhodopseudomonas palustris BisB18) (UniProt Q21A54). The assay can be described thus: crystal structure; rPduLΔEP crystals from 39%-35% MPD, sitting drop, 22°C; CoA-bound (native) and phosphate-soaked forms; two molecules in the asymmetric unit; both purified.

Assay [3] addresses sPduLΔEP (PduL from the pdu locus of Salmonella enterica Typhimurium LT2, putative encapsulation peptide residues 1-27 removed) (Salmonella enterica Typhimurium LT2) (UniProt Q9XDN5). Nature of the assay: SEC; post-nickel affinity protein on HiLoad 26/60 Superdex 200 preparative column, pooled fractions (1-20 mg/mL) on Superdex 200 10/300 GL analytical column; 20 mM Tris pH 7.4, 50 mM NaCl; both purified. A general note: SEC sorts molecules by how far they enter the pores of the column.

Results are given in words; binding and its absence hold for the method and conditions named. Some binding calls cover weakened binding; strength is not graded here.

B1: sPduL, full length (PduL from the pdu locus of Salmonella enterica Typhimurium LT2) (enzyme, UniProt Q9XDN5 1-210)
chain: MDKELLQSTVRKVLDEMRQRPIPLGVSNRHIHLSAQDYERLFPGHPISEKKALLQPGQYAAEQTVTLVGPKGQLKNVRLLGPLRSVSQVEISRTDARTLGIAAPLRMSGNLKGTPGIRLVSPFAELELPSGVIVAQRHIHMSPLDALILRVSHGDMVSVAIEGDDRGLIFNNVAIRVSPDMRLEMHIDTDEANAAGADNPHAFARLVGPR
Take B1: in assay [1], the binding result is “no binding”.

B2: rPduLΔEP (PduL from the grm3 locus of Rhodopseudomonas palustris BisB18, N-terminal putative encapsulation peptide removed) (enzyme, UniProt Q21A54 34-226, looked up)
chain: GVDPFQVAVGVSNRHIHLSRTDMDTLFGPGAELQRKKAMKQPGQFAAEETVTLKGPKGSLSKVRVLGPLRRETQVEVSVADGFALGITPPLRQSGQLDDTPGLTIIGPQGSVTKDHGVIVAQRHIHMHPSTAAKLGLRNGDEVDVEAGGERGGVMHRVLIRVAEASADEMHIDVEEANALCLKNDDVVRICKK
notes: PduL phosphotransacylase, grm3 locus, Rhodopseudomonas palustris BisB18; N-terminal putative EP (33 amino acids) removed; the crystallized construct begins with M-G-V; The construct begins with M-G-V; Gene codon optimized and synthesized with the 6xHis tag; no tag cleavage step is described; Crystals hold CoA (or phosphate) and two zinc ions per chain; also called truncated rPduL; Pdul-His; …
Turning to B2, the binding entry in assay [2] was “binds”.

B3: sPduLΔEP (PduL from the pdu locus of Salmonella enterica Typhimurium LT2, putative encapsulation peptide residues 1-27 removed) (enzyme, UniProt Q9XDN5 28-210)
chain: NRHIHLSAQDYERLFPGHPISEKKALLQPGQYAAEQTVTLVGPKGQLKNVRLLGPLRSVSQVEISRTDARTLGIAAPLRMSGNLKGTPGIRLVSPFAELELPSGVIVAQRHIHMSPLDALILRVSHGDMVSVAIEGDDRGLIFNNVAIRVSPDMRLEMHIDTDEANAAGADNPHAFARLVGPR
For B3, the binding entry in assay [3] was “no binding”.
